The list shows a part of the results.
compound: C#Cc1cccc(Nc2ncnc3cc(OCCOC)c(OCCOC)cc23)c1 [erlotinib]; test: log2 fold change, soluble protein after heating vs DMSO (PISA); higher = thermal stabilisation; K562 cells, 10 uM, 30 min; active = over 0.2 and 3.5 SD of the protein, either way, in both replicates (recomputed)
How it was run: (§1)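 Soluble protein was defined as the supernatant after 21,000xg for 90 min. It came from K562 cells at 2×10^6 cells/mL given 10 μM compound for 30 min, heated in aliquots for 3 min across 48°C-58°C, pooled, and extracted in PBS with 0.5% NP-40 at 4°C, and was quantified by TMTpro 16plex LC-MS/MS with equalised channel sums. Thermal stability against control samples, from duplicates, is reported as log2 fold change.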

Amino acid sequences for entries named in this document (tags omitted). A change or cut given only in a name is not applied to a line headed by its entry.
UniProt Q8NB78: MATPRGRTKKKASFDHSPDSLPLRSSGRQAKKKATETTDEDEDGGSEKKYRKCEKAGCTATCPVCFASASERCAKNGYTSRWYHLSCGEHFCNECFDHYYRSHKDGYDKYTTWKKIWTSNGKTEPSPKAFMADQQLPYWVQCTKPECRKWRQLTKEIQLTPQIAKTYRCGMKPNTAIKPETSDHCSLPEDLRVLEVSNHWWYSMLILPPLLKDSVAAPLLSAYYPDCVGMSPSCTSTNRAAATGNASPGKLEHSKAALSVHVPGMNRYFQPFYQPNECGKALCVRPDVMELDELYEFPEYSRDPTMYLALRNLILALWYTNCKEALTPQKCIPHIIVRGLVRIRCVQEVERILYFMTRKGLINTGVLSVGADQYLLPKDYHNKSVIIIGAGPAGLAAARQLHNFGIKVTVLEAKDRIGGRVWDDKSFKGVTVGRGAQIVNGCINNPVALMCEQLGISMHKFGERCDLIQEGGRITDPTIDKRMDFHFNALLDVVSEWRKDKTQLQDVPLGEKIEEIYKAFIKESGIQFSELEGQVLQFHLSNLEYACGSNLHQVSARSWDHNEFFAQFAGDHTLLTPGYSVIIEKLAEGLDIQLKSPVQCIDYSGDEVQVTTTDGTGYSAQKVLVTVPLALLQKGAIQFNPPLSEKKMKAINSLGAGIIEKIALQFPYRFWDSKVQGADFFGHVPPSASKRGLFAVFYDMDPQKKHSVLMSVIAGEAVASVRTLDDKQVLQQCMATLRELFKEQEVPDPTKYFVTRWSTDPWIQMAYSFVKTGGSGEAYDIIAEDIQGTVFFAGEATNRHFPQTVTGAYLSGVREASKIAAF
UniProt Q9ULI4: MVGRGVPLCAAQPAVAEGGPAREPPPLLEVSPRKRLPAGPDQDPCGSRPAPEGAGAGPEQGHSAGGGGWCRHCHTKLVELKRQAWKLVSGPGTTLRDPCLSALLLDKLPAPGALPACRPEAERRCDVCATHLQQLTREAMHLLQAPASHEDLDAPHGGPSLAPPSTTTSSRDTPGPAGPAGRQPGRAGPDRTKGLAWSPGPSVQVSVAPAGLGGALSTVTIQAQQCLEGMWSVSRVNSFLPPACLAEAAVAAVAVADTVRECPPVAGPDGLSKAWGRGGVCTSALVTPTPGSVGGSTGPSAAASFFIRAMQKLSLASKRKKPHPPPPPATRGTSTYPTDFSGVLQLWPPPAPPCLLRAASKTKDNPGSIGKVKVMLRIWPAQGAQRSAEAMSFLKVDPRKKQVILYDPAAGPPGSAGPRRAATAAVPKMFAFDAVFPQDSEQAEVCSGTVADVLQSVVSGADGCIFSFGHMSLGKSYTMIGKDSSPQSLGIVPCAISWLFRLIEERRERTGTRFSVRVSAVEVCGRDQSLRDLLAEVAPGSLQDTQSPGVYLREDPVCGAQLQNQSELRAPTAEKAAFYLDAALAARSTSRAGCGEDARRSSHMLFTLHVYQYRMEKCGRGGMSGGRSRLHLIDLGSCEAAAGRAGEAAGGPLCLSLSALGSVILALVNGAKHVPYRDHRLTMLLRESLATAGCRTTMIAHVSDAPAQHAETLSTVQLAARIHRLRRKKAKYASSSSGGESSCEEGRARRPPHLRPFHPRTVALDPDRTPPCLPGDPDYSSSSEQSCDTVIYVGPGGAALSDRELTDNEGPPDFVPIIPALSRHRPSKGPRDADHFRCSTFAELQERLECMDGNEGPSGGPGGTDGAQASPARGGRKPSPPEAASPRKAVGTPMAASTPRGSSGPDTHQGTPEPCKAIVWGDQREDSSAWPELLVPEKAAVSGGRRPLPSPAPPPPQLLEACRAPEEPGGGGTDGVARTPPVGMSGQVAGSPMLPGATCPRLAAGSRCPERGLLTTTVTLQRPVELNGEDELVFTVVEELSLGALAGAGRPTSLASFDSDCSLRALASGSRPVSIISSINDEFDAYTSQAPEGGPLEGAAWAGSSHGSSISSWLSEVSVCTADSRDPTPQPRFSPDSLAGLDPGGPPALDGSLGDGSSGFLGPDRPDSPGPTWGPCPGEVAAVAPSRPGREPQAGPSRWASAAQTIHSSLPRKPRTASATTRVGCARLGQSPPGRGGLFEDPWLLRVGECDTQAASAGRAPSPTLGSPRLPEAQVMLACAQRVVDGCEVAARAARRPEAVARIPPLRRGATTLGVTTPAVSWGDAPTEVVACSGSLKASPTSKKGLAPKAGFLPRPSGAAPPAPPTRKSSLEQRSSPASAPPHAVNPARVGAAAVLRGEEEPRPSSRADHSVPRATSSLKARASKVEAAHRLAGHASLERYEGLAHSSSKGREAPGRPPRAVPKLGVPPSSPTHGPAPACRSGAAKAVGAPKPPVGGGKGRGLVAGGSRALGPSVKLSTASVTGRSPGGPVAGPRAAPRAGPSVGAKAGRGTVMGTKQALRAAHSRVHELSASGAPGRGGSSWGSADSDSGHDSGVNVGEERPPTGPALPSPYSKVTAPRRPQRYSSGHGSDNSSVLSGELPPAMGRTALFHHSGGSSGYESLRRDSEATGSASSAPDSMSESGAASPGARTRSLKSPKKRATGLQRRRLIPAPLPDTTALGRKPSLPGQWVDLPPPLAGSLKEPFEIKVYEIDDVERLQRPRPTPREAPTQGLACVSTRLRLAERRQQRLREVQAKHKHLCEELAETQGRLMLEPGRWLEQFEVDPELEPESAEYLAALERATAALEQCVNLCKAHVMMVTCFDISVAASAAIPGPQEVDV
UniProt O95235: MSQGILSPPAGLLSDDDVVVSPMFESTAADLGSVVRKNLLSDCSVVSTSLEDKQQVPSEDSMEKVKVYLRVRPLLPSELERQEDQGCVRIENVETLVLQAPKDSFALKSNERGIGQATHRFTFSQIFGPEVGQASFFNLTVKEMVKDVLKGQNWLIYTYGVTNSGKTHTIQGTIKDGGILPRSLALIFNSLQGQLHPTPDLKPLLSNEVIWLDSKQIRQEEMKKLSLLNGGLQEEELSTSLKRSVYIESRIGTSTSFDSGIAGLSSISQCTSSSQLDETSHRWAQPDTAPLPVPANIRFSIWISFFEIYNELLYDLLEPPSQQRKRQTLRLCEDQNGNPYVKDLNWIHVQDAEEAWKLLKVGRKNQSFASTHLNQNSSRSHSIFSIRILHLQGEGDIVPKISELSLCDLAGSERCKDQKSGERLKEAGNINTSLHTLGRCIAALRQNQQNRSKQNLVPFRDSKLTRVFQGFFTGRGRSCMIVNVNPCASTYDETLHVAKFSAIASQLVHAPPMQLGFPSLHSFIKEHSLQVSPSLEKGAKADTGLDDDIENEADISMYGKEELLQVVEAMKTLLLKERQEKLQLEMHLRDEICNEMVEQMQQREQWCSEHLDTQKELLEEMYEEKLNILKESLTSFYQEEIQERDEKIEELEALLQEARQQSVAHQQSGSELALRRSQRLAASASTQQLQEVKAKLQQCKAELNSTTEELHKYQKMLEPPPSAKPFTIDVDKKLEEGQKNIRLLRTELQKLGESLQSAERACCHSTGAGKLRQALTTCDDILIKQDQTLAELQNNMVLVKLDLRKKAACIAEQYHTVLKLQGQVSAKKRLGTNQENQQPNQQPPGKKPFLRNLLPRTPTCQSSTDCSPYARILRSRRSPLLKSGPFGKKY
UniProt Q8NFY9: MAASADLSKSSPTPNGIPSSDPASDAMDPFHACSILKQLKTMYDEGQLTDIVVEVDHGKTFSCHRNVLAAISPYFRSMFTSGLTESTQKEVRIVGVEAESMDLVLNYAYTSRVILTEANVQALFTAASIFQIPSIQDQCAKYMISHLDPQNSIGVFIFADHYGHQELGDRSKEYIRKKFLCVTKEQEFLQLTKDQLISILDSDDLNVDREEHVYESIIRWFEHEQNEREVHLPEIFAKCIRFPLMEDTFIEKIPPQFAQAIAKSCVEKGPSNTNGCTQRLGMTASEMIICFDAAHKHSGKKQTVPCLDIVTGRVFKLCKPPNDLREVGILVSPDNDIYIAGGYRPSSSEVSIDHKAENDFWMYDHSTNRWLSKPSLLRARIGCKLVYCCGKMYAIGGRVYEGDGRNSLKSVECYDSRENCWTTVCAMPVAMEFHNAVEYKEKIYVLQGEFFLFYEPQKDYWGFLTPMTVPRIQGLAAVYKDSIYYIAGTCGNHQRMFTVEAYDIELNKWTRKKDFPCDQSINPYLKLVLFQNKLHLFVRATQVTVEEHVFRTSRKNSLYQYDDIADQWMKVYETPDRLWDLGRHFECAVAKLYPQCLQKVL
UniProt O15550, whole entry, looked up: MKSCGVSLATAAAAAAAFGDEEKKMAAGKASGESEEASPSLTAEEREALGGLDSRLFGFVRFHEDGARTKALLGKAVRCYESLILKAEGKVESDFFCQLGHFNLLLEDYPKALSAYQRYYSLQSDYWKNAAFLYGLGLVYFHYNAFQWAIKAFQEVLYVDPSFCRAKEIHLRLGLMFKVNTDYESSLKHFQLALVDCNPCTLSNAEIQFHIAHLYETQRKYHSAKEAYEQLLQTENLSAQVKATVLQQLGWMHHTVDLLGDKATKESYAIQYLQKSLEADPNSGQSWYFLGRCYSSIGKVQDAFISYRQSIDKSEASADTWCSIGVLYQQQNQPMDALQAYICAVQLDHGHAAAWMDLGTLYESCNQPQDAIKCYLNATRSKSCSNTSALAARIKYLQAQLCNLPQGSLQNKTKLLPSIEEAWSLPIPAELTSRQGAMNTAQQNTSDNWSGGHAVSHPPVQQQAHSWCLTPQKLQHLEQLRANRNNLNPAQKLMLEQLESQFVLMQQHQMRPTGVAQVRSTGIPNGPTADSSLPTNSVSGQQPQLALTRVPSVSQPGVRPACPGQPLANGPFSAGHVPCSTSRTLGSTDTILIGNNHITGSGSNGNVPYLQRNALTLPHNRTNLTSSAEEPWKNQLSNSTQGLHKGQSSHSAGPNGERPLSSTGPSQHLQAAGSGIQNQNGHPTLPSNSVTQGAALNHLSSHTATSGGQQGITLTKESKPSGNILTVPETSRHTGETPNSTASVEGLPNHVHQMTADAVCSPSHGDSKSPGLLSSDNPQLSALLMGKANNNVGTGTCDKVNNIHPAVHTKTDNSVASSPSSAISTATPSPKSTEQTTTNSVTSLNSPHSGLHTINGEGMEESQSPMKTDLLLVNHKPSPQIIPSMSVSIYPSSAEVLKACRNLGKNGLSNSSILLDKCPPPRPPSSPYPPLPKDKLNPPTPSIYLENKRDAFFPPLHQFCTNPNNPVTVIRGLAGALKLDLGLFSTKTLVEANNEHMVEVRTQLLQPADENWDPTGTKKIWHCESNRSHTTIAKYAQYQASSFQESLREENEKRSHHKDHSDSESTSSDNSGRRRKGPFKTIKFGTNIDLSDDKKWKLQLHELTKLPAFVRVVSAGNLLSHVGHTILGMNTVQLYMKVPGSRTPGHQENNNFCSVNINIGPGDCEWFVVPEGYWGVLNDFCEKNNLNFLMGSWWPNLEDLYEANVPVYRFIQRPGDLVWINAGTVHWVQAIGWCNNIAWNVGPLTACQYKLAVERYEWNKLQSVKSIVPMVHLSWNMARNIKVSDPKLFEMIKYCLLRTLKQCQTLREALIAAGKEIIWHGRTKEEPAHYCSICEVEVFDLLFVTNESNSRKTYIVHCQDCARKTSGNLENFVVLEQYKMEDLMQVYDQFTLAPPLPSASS
UniProt Q9BW62: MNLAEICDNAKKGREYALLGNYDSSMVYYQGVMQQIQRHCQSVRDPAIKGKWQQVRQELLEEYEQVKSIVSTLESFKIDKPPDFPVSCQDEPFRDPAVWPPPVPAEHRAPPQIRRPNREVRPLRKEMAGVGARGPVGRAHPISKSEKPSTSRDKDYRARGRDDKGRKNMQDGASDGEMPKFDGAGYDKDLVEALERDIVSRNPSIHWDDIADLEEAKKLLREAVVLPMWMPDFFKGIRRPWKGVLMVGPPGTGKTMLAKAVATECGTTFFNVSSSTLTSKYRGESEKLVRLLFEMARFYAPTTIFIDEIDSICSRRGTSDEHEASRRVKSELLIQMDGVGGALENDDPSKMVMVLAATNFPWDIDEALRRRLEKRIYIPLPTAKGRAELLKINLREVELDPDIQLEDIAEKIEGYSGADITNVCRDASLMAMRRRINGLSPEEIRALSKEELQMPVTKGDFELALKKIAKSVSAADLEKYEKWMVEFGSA
UniProt Q9H9V9: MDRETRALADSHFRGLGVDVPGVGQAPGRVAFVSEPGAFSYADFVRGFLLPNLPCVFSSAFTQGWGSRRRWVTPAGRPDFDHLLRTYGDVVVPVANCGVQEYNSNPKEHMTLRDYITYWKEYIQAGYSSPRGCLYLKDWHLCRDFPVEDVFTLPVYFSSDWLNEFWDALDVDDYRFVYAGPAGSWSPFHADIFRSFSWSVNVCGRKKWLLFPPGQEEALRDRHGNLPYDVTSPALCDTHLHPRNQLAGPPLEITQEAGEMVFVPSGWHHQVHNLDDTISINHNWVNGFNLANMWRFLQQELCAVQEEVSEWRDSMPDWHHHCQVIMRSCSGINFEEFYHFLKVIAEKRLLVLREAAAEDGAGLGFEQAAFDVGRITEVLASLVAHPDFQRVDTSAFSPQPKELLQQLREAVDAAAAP

log2 fold change, inactive:
JUN (UniProt P05412) -0.301
KDF1 (UniProt Q8NAX2) -0.14
ITSN2 (UniProt Q9NZM3) 0.059
KDM1B (UniProt Q8NB78) 0.141
KIF21A (UniProt H0YI78) 0.077
KIF26A (UniProt Q9ULI4) -0.044
KMT2A isoform 3 (UniProt Q03164) -0.098

compound: C/C(=N\NC(=O)C1=CC(=CC=C1)S(=O)(=O)N2CCOCC2)/C3=C(C=CC(=C3)Cl)O; test: as above
How it was run: as §1

log2 fold change, inactive:
JMJD8 (UniProt Q96S16) 0.098
KCTD21 (UniProt Q4G0X4) 0.179
KIF13A isoform 4 (UniProt Q9H1H9) 0.21
KIF20A (UniProt O95235) -0.256
ITSN1 (UniProt Q15811) -0.04
KBTBD8 (UniProt Q8NFY9) -0.046
KIZ (UniProt Q2M2Z5) 0.018
KDM6A (UniProt O15550) 0.138
KATNAL1 (UniProt Q9BW62) 0.039
JMJD4 (UniProt Q9H9V9) 0.098
KLHL7 isoform 3 (UniProt Q8IXQ5) -0.045
KIF16B isoform 2 (UniProt Q96L93) -0.086
KLC1 isoform 3 (UniProt Q07866) -0.111
KIFC1 (UniProt Q9BW19) 0.027

compound: C1=CC(=C(C=C1Cl)C2=NC3=NC=CN=C3C(=N2)NC4=CC=NC=C4)F; test: as above
How it was run: as §1

log2 fold change, inactive:
KLHL17 (UniProt Q6TDP4) -0.336
KLHL36 (UniProt Q8N4N3) -0.049
KIFAP3 (UniProt Q92845) 0.015
KIF20A (UniProt O95235) -0.041
ITSN1 (UniProt Q15811) 0.101
KIDINS220 isoform 2 (UniProt Q9ULH0) 0.087
KIAA0754 (UniProt O94854) -0.222
KBTBD8 (UniProt Q8NFY9) -0.061
KDM6A (UniProt O15550) -0.052
KHSRP (UniProt M0R3J3) -0.059
KCTD1 (UniProt Q719H9) 0.003
KATNAL1 (UniProt Q9BW62) -0.004
KLHL7 isoform 3 (UniProt Q8IXQ5) -0.083
KIFC1 (UniProt Q9BW19) -0.058
KLHL42 (UniProt Q9P2K6) 0.001

compound: C1=CC(=CC=C1C2=NC3=C(N2)C=C(C=C3)C(=O)N)OC4=CC=C(C=C4)Cl; test: as above
How it was run: as §1

log2 fold change, inactive:
JUN (UniProt P05412) 0.277
KDF1 (UniProt Q8NAX2) 0.079
ITSN2 (UniProt Q9NZM3) -0.551
KDM1B (UniProt Q8NB78) 0.072
KIF21A (UniProt H0YI78) -0.137
KIF26A (UniProt Q9ULI4) -0.037
KMT2A isoform 3 (UniProt Q03164) 0.057

compound: C1=CC2=C(C=CC(=C2)/C=C\3/C(=O)NC(=NCC4=CC=CS4)S3)N=C1; test: as above
How it was run: as §1

log2 fold change, inactive:
JMJD8 (UniProt Q96S16) 0.061
KCTD21 (UniProt Q4G0X4) 0.069
KIF13A isoform 4 (UniProt Q9H1H9) 0.161
KIF20A (UniProt O95235) 0.097
ITSN1 (UniProt Q15811) 0.145
KBTBD8 (UniProt Q8NFY9) 0.1
KIZ (UniProt Q2M2Z5) 0.077
KDM6A (UniProt O15550) 0.065
KATNAL1 (UniProt Q9BW62) -0.064
JMJD4 (UniProt Q9H9V9) 0.126
KLHL7 isoform 3 (UniProt Q8IXQ5) -0.216
KIF16B isoform 2 (UniProt Q96L93) -0.053
KLC1 isoform 3 (UniProt Q07866) 0.009
KIFC1 (UniProt Q9BW19) 0.205

compound: C1=CC2=NC=CN=C2C=C1/C=C/3\C(=O)NC(=O)S3; test: as above
How it was run: as §1

log2 fold change, inactive:
JUN (UniProt P05412) 0
KRT87P (UniProt A6NCN2) 0.054
KIFAP3 (UniProt Q92845) -0.115
KIF1C (UniProt O43896) 0.076
JCHAIN (UniProt P01591) -0.227
KDM1B (UniProt Q8NB78) 0
KIDINS220 isoform 2 (UniProt Q9ULH0) -0.087
KIAA0754 (UniProt O94854) -0.131
KBTBD8 (UniProt Q8NFY9) 0.096
KIF26A (UniProt Q9ULI4) 0.011
KDM2B (UniProt Q8NHM5) 0.057
KATNAL1 (UniProt Q9BW62) -0.124
JMJD4 (UniProt Q9H9V9) -0.065
KLHL7 isoform 3 (UniProt Q8IXQ5) -0.084
KLF1 (UniProt Q13351) 0.092
KLHL42 (UniProt Q9P2K6) -0.051
KCTD7 (UniProt Q96MP8) -0.32

From the supplement of paper PMC10849652
